Some of the results follow.

By UniProt entry, the sequences of proteins in these tests, tags left out. Where a name states a change or a piece, a line headed by the entry shows the natural chain unless it says otherwise.
UniProt Q9NUQ3: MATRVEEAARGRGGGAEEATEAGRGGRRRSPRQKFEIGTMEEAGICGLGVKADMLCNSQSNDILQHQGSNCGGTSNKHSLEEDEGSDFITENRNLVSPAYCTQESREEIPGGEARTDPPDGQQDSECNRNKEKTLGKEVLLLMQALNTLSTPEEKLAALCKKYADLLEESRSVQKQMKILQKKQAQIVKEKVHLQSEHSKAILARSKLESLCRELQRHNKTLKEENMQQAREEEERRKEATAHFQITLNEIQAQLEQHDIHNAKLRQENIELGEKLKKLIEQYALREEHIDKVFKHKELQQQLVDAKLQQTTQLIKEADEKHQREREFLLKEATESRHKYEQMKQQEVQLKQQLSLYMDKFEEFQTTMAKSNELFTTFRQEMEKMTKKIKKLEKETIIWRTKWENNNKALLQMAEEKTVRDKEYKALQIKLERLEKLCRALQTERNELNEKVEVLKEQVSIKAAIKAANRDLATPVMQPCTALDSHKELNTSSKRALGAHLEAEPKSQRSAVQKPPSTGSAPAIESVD
UniProt Q9UBM7: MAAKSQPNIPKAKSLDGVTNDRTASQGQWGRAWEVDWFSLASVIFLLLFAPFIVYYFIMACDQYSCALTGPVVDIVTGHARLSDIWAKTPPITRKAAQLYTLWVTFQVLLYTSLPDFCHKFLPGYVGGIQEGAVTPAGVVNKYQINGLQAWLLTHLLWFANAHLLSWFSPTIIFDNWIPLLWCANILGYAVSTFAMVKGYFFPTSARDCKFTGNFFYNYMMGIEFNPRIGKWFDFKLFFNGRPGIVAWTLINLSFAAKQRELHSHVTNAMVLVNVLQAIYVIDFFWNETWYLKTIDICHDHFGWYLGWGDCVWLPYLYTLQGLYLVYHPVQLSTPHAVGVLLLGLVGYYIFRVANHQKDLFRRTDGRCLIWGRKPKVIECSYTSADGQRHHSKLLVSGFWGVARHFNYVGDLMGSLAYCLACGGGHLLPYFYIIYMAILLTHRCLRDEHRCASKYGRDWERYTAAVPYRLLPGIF
UniProt Q5QJE6: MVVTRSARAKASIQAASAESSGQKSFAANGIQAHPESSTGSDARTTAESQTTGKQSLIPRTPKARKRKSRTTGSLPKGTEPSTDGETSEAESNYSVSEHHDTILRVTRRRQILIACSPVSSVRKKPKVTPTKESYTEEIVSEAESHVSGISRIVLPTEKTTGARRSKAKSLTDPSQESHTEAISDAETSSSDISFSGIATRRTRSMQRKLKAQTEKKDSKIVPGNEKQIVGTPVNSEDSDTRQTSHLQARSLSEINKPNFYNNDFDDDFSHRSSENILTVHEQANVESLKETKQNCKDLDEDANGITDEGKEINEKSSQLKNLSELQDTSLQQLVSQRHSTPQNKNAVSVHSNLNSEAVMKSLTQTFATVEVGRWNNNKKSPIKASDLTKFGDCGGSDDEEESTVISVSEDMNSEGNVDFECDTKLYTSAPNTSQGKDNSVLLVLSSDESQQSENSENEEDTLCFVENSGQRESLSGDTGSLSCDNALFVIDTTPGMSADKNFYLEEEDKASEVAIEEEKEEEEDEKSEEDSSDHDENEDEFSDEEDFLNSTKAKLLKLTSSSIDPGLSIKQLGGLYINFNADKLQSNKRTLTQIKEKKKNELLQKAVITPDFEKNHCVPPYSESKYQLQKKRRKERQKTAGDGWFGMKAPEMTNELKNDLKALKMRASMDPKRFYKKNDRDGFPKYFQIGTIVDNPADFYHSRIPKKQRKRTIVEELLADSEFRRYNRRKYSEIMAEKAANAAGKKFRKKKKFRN
UniProt Q16698: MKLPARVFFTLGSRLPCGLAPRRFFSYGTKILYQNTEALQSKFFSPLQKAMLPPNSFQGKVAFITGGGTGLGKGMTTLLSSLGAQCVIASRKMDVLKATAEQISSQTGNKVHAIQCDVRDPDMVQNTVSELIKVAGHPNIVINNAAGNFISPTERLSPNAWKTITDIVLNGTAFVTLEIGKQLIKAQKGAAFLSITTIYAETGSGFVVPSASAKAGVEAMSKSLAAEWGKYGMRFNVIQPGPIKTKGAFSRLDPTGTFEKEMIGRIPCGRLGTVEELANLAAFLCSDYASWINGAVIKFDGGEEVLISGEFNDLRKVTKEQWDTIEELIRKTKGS
UniProt Q92499: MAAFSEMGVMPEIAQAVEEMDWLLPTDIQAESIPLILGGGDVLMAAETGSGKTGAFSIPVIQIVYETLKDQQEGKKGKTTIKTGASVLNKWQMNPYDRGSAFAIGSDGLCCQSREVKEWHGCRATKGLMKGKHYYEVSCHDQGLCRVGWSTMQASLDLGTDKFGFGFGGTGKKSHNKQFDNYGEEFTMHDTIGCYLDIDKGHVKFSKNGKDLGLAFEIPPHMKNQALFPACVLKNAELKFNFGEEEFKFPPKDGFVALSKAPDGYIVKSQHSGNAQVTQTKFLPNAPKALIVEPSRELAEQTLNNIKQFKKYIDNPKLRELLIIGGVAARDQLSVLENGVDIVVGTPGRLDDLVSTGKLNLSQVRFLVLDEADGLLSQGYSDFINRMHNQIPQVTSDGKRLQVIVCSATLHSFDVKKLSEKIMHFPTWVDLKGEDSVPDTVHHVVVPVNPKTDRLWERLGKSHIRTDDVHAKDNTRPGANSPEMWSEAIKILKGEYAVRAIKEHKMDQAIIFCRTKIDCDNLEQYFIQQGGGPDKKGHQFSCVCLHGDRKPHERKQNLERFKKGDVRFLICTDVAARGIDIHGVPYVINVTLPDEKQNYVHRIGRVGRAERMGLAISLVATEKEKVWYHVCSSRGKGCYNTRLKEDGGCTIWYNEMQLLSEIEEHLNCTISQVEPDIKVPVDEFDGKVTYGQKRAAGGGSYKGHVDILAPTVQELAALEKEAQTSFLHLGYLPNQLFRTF
UniProt Q16531, whole entry: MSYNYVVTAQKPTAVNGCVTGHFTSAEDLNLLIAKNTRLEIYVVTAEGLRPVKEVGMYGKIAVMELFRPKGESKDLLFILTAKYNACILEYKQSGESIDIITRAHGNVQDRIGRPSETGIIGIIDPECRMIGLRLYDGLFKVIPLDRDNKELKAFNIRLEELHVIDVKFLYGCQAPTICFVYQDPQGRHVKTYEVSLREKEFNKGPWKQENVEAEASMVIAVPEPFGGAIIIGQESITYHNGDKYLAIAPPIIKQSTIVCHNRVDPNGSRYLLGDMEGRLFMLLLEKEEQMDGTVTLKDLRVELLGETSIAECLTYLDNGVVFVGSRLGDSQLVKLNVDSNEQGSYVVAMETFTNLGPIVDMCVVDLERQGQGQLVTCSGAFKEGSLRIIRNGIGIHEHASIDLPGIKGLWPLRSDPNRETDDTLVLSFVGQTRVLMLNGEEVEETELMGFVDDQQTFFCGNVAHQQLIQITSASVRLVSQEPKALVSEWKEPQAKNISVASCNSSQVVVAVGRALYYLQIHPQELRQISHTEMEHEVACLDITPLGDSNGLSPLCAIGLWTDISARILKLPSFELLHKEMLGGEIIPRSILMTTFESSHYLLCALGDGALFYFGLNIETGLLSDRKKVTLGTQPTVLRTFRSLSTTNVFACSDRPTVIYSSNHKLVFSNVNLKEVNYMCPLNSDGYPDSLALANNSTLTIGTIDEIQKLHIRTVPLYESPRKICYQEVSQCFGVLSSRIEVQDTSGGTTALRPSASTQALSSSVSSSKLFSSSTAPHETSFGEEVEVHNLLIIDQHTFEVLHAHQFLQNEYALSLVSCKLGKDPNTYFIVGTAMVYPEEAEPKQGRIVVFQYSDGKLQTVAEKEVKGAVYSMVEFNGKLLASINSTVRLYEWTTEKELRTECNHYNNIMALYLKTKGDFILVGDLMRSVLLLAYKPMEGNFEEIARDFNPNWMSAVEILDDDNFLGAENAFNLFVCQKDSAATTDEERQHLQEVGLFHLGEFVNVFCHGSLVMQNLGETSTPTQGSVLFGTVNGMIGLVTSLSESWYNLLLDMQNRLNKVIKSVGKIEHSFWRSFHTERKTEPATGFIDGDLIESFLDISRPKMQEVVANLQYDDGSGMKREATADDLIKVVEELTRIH
UniProt Q14562: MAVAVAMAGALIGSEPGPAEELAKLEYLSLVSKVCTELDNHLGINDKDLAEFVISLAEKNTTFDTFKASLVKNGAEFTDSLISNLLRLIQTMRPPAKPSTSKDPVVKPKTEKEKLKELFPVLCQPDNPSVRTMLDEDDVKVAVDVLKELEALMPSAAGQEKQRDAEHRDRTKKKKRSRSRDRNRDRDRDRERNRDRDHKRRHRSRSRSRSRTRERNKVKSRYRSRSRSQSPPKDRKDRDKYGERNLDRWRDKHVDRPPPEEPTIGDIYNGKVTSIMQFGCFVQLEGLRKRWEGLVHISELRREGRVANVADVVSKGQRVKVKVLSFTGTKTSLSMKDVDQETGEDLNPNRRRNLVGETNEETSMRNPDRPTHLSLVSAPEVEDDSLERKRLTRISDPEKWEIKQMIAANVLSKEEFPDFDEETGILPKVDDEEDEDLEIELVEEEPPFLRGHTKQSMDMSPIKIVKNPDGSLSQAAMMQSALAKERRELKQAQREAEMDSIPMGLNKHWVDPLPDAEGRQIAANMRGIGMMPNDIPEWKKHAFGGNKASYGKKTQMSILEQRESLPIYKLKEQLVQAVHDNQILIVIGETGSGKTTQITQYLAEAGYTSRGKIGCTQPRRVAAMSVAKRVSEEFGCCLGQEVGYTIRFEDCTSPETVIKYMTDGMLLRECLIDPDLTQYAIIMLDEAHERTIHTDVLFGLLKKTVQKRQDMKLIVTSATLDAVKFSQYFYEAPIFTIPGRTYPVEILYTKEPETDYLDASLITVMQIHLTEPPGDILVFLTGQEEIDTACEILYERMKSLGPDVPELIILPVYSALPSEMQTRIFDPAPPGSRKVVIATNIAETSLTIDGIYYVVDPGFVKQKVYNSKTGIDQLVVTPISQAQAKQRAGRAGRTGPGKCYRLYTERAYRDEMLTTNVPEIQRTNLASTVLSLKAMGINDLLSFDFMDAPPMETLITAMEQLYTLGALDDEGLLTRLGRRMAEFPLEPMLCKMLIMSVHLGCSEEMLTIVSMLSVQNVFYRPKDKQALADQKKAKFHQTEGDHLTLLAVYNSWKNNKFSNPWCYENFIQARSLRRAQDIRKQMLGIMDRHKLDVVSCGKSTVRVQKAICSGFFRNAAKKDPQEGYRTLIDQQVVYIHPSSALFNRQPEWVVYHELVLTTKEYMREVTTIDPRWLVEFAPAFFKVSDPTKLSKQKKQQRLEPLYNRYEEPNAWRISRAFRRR
UniProt P00387: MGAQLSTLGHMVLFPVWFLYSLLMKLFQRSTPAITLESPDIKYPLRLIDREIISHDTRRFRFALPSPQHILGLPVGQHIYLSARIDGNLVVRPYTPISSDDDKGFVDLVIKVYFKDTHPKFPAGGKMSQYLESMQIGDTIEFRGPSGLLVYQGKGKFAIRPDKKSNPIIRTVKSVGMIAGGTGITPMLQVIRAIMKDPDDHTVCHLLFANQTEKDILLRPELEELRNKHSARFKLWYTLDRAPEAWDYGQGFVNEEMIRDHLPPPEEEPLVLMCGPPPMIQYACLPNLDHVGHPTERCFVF
UniProt P78368: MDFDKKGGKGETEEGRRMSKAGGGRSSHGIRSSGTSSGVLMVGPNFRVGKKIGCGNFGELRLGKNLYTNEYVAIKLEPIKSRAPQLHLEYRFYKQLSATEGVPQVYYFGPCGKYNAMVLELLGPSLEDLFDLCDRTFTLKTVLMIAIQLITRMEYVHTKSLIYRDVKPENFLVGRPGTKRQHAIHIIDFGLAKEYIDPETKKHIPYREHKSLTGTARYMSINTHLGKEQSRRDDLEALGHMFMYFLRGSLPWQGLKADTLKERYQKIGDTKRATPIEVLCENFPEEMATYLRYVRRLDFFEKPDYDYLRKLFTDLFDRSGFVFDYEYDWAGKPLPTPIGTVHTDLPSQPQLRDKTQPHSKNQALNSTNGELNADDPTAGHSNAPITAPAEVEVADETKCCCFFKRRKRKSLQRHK
UniProt P10515, whole entry: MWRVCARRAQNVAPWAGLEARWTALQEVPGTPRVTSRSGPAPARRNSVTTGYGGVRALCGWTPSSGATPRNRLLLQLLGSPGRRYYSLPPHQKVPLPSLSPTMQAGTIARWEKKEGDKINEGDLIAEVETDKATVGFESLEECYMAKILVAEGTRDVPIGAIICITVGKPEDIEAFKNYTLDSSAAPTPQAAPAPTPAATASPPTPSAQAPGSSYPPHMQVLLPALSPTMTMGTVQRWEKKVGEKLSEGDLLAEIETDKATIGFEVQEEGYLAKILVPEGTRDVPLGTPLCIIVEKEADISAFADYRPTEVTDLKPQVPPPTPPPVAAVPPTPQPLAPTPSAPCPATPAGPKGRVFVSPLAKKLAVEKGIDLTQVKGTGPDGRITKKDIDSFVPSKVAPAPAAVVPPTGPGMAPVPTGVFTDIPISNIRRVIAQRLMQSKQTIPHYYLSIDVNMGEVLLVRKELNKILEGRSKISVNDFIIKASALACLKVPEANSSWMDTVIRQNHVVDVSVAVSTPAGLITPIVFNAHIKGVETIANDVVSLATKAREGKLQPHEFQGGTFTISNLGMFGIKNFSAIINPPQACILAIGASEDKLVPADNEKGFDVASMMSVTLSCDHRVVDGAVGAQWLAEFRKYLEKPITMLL

Compound in this assay: COc1ccc(Cn2ccc3cc(C)c(C(=O)NO)cc32)cc1
Nature of the assay: dose-dependent thermal stabilisation call (2D-TPP, DLPTP, 10% FDR) (binary (1 = stabilised)); higher = stabilised by the compound. The conditions noted are these: system: HL-60 intact cells; concentration range 0.04-10 µM. As to the method:
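2D thermal proteome profiling in intact HL-60 cells treated with BRD-3811 (0, 0.04, 0.29, 2, 10 uM) for 90 min at 37 C, then heated 3 min at one of 12 temperatures (42-63.9 C). Soluble protein was quantified by TMT10 MS. The value is the DLPTP call of the paper: dose-dependent thermal stabilisation over all temperatures at 10% FDR (F-test of a dose-response against a flat model); one experiment, one call per tested protein.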
Turning to CXORF15 (UniProt Q9NUQ3), the “dose-dependent thermal stabilisation call” value was inactive: 0.

Regarding DPY19L1 (UniProt Q2PZI1), the “dose-dependent thermal stabilisation call” value was inactive: 0.

Take DHRS4 (UniProt Q9BTZ2): the “dose-dependent thermal stabilisation call” value was inactive: 0.

Take DHCR7 (UniProt Q9UBM7): the “dose-dependent thermal stabilisation call” value was inactive: 0.

For DNTTIP2 (UniProt Q5QJE6), the “dose-dependent thermal stabilisation call” value is inactive: 0.

Regarding DHX38 (UniProt Q92620), the “dose-dependent thermal stabilisation call” value is inactive: 0.

Turning to DNAJA1 (UniProt P31689), the “dose-dependent thermal stabilisation call” value was inactive: 0.

As for CUX1, the “dose-dependent thermal stabilisation call” value is inactive: 0.

Turning to DENND1A (UniProt Q8TEH3), the “dose-dependent thermal stabilisation call” value was inactive: 0.

In the case of DECR1 (UniProt Q16698), the “dose-dependent thermal stabilisation call” value is active: 1.

Turning to DDX21 (UniProt Q9NR30), the “dose-dependent thermal stabilisation call” value was inactive: 0.

Regarding DACH1 (UniProt Q9UI36), the “dose-dependent thermal stabilisation call” value is inactive: 0.

Take DNAJC19 (UniProt Q96DA6): the “dose-dependent thermal stabilisation call” value is inactive: 0.

Regarding DHX37 (UniProt Q8IY37), the “dose-dependent thermal stabilisation call” value was inactive: 0.

With DEF6 (UniProt Q9H4E7), the “dose-dependent thermal stabilisation call” value was inactive: 0.

Turning to DCPS (UniProt Q96C86), the “dose-dependent thermal stabilisation call” value was inactive: 0.

With DDX1 (UniProt Q92499), the “dose-dependent thermal stabilisation call” value is inactive: 0.

Consider DDB1 (UniProt Q16531), for which the “dose-dependent thermal stabilisation call” value is inactive: 0.

With CYP20A1 (UniProt Q6UW02), the “dose-dependent thermal stabilisation call” value is inactive: 0.

As for DHX8 (UniProt Q14562), the “dose-dependent thermal stabilisation call” value was inactive: 0.

Turning to CYB5R3 (UniProt P00387), the “dose-dependent thermal stabilisation call” value was active: 1.

Consider CSNK1G2 (UniProt P78368), for which the “dose-dependent thermal stabilisation call” value was inactive: 0.

With DDB2 (UniProt Q92466), the “dose-dependent thermal stabilisation call” value was inactive: 0.

Turning to DDAH2 (UniProt O95865), the “dose-dependent thermal stabilisation call” value is inactive: 0.

On to CSNK2A2 (UniProt P19784), for which the “dose-dependent thermal stabilisation call” value was inactive: 0.

Consider CSTF1 (UniProt Q05048), for which the “dose-dependent thermal stabilisation call” value was inactive: 0.

As for DDX58 (UniProt O95786), the “dose-dependent thermal stabilisation call” value is inactive: 0.

With DNPEP (UniProt Q9ULA0), the “dose-dependent thermal stabilisation call” value is inactive: 0.

Turning to DAK (UniProt Q3LXA3), the “dose-dependent thermal stabilisation call” value was inactive: 0.

For DCTN5 (UniProt Q9BTE1), the “dose-dependent thermal stabilisation call” value was inactive: 0.

Consider DAPK3 (UniProt O43293), for which the “dose-dependent thermal stabilisation call” value was inactive: 0.

With DCI (UniProt P42126), the “dose-dependent thermal stabilisation call” value was inactive: 0.

Consider DJ-1, for which the “dose-dependent thermal stabilisation call” value is inactive: 0.

For the target DDA1 (UniProt Q9BW61), the “dose-dependent thermal stabilisation call” value is inactive: 0.

DKFZP434B0335: the “dose-dependent thermal stabilisation call” value was inactive: 0.

In the case of DLAT (UniProt P10515), the “dose-dependent thermal stabilisation call” value is inactive: 0.

As to CSGLCA-T, the “dose-dependent thermal stabilisation call” value was inactive: 0.

As for DENND3 (UniProt A2RUS2), the “dose-dependent thermal stabilisation call” value is inactive: 0.

For the target DCP1B (UniProt Q8IZD4), the “dose-dependent thermal stabilisation call” value is inactive: 0.

Turning to DOCK6 (UniProt Q96HP0), the “dose-dependent thermal stabilisation call” value is inactive: 0.
